PubChem BioAssay AID1159618 – Peter MacCallum Cancer Centre – 2016

- Purpose: 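Contrast migration regulators of blood versus lymphatic endothelial cells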 (follow-up of hits)
- System: human HMBEC blood microvascular and HDLEC dermal lymphatic endothelial cells
- Reagents: siRNA pool against human genes, 40 nM
- Detection: 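Scratch wounds imaged automatically; migrated area scaled to mock-transfected mean and averaged across two replicates, with per-well nuclei counts recorded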
- Direction: migration vs mock, HMBEC and migration vs mock, HDLEC: higher = more migration into the scratch
- Rule for the call: 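a knock-down counts as active if migrated area in either cell type is under 0.65 of the mock level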
- Calls: active = migration impaired; inactive = no change
The deposit covers 153 reagents; this is a random part of them. Over the whole deposit, 111 (73%) got an active call. 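Migration not corrected for cell number; some knock-downs also lowered nuclei counts, so reduced closure may partly reflect fewer cells.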 Further read-outs or replicates are left out here. The record does not give: the time to read-out.

gene knocked down,cell type with impaired migration,"migration vs mock, HMBEC","migration vs mock, HDLEC",Call
UHMK1 (U2AF homology motif kinase 1),impaired only in blood endothelial cells,0.606,0.689,active
ETNK2 (ethanolamine kinase 2),impaired in both blood and lymphatic cells,0.534,0.475,active
AKT3 (AKT serine/threonine kinase 3),no change in either cell type,0.863,1.01,inactive
MPP3 (MAGUK p55 scaffold protein 3),no change in either cell type,0.747,0.82,inactive
ZNF76 (zinc finger protein 76),impaired in both blood and lymphatic cells,0.383,-0.0574,active
TYRO3 (TYRO3 protein tyrosine kinase),impaired only in blood endothelial cells,0.472,0.751,active
NDUFA7 (NADH:ubiquinone oxidoreductase subunit A7),impaired only in lymphatic endothelial cells,0.651,0.63,active
PRKD3 (protein kinase D3),no change in either cell type,0.723,0.71,inactive
LGALS1 (galectin 1),impaired in both blood and lymphatic cells,0.451,0.25,active
SEPTIN4 (septin 4),impaired in both blood and lymphatic cells,0.266,0.0189,active
CHSY3 (chondroitin sulfate synthase 3),no change in either cell type,0.802,0.762,inactive
CDC42 (cell division cycle 42),impaired only in lymphatic endothelial cells,0.743,0.246,active
TES (testin LIM domain protein),impaired in both blood and lymphatic cells,0.376,0.539,active
PMVK (phosphomevalonate kinase),impaired in both blood and lymphatic cells,0.527,0.623,active
PLCG1 (phospholipase C gamma 1),impaired in both blood and lymphatic cells,0.547,0.59,active
TNFRSF8 (TNF receptor superfamily member 8),no change in either cell type,0.72,0.686,inactive
CCS (copper chaperone for superoxide dismutase),impaired only in blood endothelial cells,0.501,0.815,active
CWC22 (CWC22 spliceosome associated protein),impaired in both blood and lymphatic cells,0.505,0.366,active
ATRAID (all-trans retinoic acid induced differentiation factor),impaired in both blood and lymphatic cells,0.242,0.395,active
"AKR1C6P (aldo-keto reductase family 1 member C6, pseudogene)",no change in either cell type,0.787,0.8,inactive
ELP2 (elongator acetyltransferase complex subunit 2),no change in either cell type,0.717,0.814,inactive
PSEN2 (presenilin 2),impaired in both blood and lymphatic cells,0.569,0.504,active
EFNA3 (ephrin A3),impaired only in blood endothelial cells,0.649,0.823,active
CRCT1 (cysteine rich C-terminal 1),impaired only in blood endothelial cells,0.636,0.734,active
TPST2 (tyrosylprotein sulfotransferase 2),impaired in both blood and lymphatic cells,0.404,0.607,active
MYL7 (myosin light chain 7),impaired only in blood endothelial cells,0.548,0.749,active
KCNQ2 (potassium voltage-gated channel subfamily Q member 2),impaired only in blood endothelial cells,0.461,0.751,active
TFAP2C (transcription factor AP-2 gamma),impaired in both blood and lymphatic cells,0.482,0.426,active
USP25 (ubiquitin specific peptidase 25),impaired in both blood and lymphatic cells,0.276,0.288,active
SLC26A11,impaired only in lymphatic endothelial cells,0.662,0.446,active
BDH2 (3-hydroxybutyrate dehydrogenase 2),no change in either cell type,0.86,0.809,inactive

6 of these entries, set out differently:
{"gene knocked down":"TPST2 (tyrosylprotein sulfotransferase 2)","cell type with impaired migration":"impaired in both blood and lymphatic cells","migration vs mock, HMBEC":0.404,"migration vs mock, HDLEC":0.607,"Call":"active"}
{"gene knocked down":"MYL7 (myosin light chain 7)","cell type with impaired migration":"impaired only in blood endothelial cells","migration vs mock, HMBEC":0.548,"migration vs mock, HDLEC":0.749,"Call":"active"}
{"gene knocked down":"KCNQ2 (potassium voltage-gated channel subfamily Q member 2)","cell type with impaired migration":"impaired only in blood endothelial cells","migration vs mock, HMBEC":0.461,"migration vs mock, HDLEC":0.751,"Call":"active"}
{"gene knocked down":"TFAP2C (transcription factor AP-2 gamma)","cell type with impaired migration":"impaired in both blood and lymphatic cells","migration vs mock, HMBEC":0.482,"migration vs mock, HDLEC":0.426,"Call":"active"}
{"gene knocked down":"USP25 (ubiquitin specific peptidase 25)","cell type with impaired migration":"impaired in both blood and lymphatic cells","migration vs mock, HMBEC":0.276,"migration vs mock, HDLEC":0.288,"Call":"active"}
{"gene knocked down":"SLC26A11","cell type with impaired migration":"impaired only in lymphatic endothelial cells","migration vs mock, HMBEC":0.662,"migration vs mock, HDLEC":0.446,"Call":"active"}

Further reagents follow:
gene knocked down,cell type with impaired migration,"migration vs mock, HMBEC","migration vs mock, HDLEC",Call
"CKM (creatine kinase, M-type)",no change in either cell type,0.738,0.713,inactive
HS3ST1 (heparan sulfate-glucosamine 3-sulfotransferase 1),no change in either cell type,0.694,0.762,inactive
SRMS,impaired only in blood endothelial cells,0.643,0.785,active
BORCS6 (BLOC-1 related complex subunit 6),impaired in both blood and lymphatic cells,0.479,0.489,active
DOT1L (DOT1 like histone lysine methyltransferase),impaired only in lymphatic endothelial cells,0.672,0.568,active
CBR1 (carbonyl reductase 1),impaired only in blood endothelial cells,0.307,0.696,active
CEPT1 (choline/ethanolamine phosphotransferase 1),impaired in both blood and lymphatic cells,0.466,0.619,active
ATM (ATM serine/threonine kinase),impaired only in blood endothelial cells,0.518,0.869,active
SGK3 (serum/glucocorticoid regulated kinase family member 3),impaired only in blood endothelial cells,0.563,0.806,active
C5AR1 (complement C5a receptor 1),no change in either cell type,0.674,0.701,inactive
FBXO4 (F-box protein 4),no change in either cell type,0.92,0.69,inactive
BTK (Bruton tyrosine kinase),impaired only in lymphatic endothelial cells,0.884,0.572,active
FMC1 (formation of mitochondrial complex V assembly factor 1),impaired in both blood and lymphatic cells,-0.199,0.248,active
NFKBIZ (NFKB inhibitor zeta),impaired in both blood and lymphatic cells,0.532,0.619,active
PIK3AP1 (phosphoinositide-3-kinase adaptor protein 1),impaired in both blood and lymphatic cells,0.526,0.544,active
BNIP1 (BCL2 interacting protein 1),no change in either cell type,0.672,0.933,inactive
FCRL2 (Fc receptor like 2),impaired in both blood and lymphatic cells,0.594,0.51,active
MIEF1 (mitochondrial elongation factor 1),impaired only in lymphatic endothelial cells,0.737,0.632,active
APOA2 (apolipoprotein A2),impaired in both blood and lymphatic cells,0.439,0.422,active
